Measurements as given in paper PMC8335693.
Results are given in words; binding and its absence hold for the method and conditions named. In cells and extracts the contact can be indirect. Some binding calls cover weakened binding; strength is not graded here.

By UniProt entry, the sequences of proteins in these tests, tags left out.
UniProt Q05397: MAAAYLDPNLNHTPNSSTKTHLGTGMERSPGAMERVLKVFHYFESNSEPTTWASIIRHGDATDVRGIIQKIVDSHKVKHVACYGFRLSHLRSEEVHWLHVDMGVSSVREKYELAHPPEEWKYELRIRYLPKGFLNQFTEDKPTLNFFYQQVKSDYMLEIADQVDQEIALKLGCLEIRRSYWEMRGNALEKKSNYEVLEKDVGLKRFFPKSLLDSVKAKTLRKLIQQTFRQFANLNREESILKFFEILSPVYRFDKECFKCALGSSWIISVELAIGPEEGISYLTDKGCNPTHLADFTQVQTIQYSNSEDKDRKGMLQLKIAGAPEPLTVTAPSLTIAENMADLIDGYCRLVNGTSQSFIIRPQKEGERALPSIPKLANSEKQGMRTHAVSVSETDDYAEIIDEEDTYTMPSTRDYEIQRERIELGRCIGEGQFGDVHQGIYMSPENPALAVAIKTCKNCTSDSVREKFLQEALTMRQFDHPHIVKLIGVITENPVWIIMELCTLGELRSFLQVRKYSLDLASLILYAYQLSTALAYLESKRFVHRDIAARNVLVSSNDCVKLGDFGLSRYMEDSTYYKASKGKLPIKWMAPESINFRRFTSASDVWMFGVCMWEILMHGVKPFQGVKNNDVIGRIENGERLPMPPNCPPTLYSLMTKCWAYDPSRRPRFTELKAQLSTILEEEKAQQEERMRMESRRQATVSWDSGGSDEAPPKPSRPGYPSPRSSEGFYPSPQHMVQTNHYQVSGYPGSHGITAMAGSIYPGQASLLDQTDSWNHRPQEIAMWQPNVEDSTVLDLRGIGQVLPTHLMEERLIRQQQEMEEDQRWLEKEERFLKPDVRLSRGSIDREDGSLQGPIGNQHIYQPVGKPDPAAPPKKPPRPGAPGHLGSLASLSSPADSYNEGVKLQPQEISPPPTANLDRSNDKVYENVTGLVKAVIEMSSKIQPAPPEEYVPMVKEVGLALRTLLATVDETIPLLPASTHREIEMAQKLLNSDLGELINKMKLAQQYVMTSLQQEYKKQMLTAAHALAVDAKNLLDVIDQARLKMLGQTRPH

Molecular target: focal adhesion kinase (FAK) (human (endogenous in HUVECs)) (UniProt Q05397)
Assay: co-IP; HUVECs stimulated with rhMG53 (10 μg/mL) or vehicle control for 24 h; lysates incubated with protein A/G plus agarose beads and anti-FAK antibody or IgG overnight at 4℃ (Pierce classic IP kit); immunoblot with antibodies against MG53 and Src

binding: binds
B1: recombinant human MG53 (Mitsugumin 53) (protein, UniProt Q6ZMU5 1-477)
chain: MSAAPGLLHQELSCPLCLQLFDAPVTAECGHSFCRACLGRVAGEPAADGTVLCPCCQAPTRPQALSTNLQLARLVEGLAQVPQGHCEEHLDPLSIYCEQDRALVCGVCASLGSHRGHRLLPAAEAHARLKTQLPQQKLQLQEACMRKEKSVAVLEHQLVEVEETVRQFRGAVGEQLGKMRVFLAALEGSLDREAERVRGEAGVALRRELGSLNSYLEQLRQMEKVLEEVADKPQTEFLMKYCLVTSRLQKILAESPPPARLDIQLPIISDDFKFQVWRKMFRALMPALEELTFDPSSAHPSLVVSSSGRRVECSEQKAPPAGEDPRQFDKAVAVVAHQQLSEGEHYWEVDVGDKPRWALGVIAAEAPRRGRLHAVPSQGLWLLGLREGKILEAHVEAKEPRALRSPERRPTRIGLYLSFGDGVLSFYDASDADALVPLFAFHERLPRPVYPFFDVCWHDKGKNAQPLLLVGPEGAEA
